From the supplement of paper PMC10849652
This is one part of the list.

By UniProt entry, the sequences of proteins in these tests, tags left out. Where a name states a change or a piece, a line headed by the entry shows the natural chain unless it says otherwise.
UniProt Q9NR19, whole entry, looked up: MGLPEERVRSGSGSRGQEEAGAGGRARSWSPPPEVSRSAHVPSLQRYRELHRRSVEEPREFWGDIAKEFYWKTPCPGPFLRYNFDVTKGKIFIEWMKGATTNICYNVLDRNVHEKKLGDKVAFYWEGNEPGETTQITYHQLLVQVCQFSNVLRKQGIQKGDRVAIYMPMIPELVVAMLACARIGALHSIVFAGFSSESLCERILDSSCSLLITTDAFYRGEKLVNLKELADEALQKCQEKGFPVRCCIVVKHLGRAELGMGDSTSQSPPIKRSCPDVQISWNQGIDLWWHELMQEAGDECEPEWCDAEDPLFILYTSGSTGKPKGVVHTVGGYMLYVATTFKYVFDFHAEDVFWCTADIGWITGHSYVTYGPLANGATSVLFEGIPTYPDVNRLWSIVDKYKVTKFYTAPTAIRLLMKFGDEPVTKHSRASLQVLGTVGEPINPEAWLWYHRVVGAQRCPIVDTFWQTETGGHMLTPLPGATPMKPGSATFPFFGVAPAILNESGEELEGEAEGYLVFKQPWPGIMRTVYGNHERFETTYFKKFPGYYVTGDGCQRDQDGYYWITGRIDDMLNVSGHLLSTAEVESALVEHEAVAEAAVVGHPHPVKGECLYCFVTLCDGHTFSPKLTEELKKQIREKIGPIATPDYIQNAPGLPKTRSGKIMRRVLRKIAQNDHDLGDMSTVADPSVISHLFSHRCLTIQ
UniProt Q8N2K0: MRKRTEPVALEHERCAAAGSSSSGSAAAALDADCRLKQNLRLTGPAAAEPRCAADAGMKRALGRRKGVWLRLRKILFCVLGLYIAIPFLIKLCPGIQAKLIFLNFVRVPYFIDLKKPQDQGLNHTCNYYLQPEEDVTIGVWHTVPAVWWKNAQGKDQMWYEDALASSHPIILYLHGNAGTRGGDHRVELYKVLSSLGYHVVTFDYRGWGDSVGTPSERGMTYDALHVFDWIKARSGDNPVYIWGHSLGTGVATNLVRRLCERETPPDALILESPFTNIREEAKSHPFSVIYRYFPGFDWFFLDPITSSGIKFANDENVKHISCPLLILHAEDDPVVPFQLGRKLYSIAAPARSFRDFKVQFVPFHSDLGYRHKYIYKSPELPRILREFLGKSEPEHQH
UniProt P55265: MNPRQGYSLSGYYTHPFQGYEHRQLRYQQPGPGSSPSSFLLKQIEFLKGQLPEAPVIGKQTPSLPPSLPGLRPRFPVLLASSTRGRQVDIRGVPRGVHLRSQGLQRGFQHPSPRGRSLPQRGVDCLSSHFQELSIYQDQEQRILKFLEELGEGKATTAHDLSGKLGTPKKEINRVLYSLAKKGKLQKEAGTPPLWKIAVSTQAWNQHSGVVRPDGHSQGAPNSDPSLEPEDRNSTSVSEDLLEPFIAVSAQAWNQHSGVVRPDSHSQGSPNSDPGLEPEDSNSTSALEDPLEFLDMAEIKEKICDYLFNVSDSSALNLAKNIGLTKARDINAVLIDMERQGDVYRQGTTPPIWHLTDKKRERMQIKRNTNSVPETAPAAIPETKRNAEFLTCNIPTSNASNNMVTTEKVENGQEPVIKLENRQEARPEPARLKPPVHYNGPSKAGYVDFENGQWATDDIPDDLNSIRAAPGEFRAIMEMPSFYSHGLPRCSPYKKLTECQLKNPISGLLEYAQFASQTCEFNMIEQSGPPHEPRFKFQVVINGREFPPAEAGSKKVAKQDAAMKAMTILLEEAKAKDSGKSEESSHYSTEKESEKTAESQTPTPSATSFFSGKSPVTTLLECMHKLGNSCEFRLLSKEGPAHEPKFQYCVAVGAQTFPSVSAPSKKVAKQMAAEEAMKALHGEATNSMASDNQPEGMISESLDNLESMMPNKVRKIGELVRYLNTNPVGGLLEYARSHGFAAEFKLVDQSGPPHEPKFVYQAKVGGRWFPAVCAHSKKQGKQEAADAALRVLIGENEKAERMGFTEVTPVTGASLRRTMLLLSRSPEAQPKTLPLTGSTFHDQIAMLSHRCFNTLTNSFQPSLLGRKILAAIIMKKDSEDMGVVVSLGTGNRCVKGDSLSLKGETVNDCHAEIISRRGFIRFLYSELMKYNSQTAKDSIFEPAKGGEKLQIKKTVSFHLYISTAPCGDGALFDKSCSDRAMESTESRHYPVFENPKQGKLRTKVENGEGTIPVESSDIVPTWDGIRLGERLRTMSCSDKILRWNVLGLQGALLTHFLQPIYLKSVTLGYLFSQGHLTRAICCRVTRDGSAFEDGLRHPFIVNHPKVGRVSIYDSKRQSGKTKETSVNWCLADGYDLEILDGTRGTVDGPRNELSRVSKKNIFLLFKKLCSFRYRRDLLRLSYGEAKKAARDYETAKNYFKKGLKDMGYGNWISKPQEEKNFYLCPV
UniProt Q9NZ32, whole entry, looked up: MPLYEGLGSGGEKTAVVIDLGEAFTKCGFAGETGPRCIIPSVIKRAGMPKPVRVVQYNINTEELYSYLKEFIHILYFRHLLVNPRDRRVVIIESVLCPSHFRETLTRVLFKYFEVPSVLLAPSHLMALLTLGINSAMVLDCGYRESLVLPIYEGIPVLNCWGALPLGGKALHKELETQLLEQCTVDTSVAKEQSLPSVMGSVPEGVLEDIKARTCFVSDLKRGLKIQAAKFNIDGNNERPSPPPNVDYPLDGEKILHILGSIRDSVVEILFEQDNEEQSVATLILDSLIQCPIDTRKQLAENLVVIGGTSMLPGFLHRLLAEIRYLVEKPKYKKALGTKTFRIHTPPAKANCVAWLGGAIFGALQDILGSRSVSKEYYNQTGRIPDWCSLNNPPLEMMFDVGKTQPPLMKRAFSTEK
UniProt Q9NUQ8: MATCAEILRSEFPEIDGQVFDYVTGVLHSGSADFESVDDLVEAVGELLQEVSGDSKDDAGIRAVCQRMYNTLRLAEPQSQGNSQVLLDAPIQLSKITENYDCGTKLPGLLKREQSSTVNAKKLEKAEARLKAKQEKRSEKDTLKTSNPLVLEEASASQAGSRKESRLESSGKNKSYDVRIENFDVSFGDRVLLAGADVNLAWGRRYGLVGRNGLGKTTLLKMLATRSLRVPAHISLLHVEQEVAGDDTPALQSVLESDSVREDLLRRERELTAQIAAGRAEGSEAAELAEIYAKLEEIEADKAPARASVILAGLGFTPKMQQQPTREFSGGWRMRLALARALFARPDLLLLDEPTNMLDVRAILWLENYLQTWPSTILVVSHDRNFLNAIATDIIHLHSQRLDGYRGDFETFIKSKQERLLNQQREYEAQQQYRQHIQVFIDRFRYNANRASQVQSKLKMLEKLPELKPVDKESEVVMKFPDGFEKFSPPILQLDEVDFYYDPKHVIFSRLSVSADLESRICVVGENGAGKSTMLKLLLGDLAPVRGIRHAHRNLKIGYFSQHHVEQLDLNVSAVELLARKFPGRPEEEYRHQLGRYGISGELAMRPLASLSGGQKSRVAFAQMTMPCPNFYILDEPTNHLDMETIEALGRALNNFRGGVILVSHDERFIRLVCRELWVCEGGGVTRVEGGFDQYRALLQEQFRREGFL
UniProt O14734: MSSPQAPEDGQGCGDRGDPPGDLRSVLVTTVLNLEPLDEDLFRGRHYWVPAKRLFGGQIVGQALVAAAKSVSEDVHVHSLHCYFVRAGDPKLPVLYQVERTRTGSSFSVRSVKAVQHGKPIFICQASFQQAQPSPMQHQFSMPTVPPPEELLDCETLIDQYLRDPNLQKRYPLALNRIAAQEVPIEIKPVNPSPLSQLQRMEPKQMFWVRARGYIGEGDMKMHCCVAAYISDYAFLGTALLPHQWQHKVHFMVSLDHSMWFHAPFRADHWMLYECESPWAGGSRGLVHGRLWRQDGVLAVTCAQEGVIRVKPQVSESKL
UniProt O15439: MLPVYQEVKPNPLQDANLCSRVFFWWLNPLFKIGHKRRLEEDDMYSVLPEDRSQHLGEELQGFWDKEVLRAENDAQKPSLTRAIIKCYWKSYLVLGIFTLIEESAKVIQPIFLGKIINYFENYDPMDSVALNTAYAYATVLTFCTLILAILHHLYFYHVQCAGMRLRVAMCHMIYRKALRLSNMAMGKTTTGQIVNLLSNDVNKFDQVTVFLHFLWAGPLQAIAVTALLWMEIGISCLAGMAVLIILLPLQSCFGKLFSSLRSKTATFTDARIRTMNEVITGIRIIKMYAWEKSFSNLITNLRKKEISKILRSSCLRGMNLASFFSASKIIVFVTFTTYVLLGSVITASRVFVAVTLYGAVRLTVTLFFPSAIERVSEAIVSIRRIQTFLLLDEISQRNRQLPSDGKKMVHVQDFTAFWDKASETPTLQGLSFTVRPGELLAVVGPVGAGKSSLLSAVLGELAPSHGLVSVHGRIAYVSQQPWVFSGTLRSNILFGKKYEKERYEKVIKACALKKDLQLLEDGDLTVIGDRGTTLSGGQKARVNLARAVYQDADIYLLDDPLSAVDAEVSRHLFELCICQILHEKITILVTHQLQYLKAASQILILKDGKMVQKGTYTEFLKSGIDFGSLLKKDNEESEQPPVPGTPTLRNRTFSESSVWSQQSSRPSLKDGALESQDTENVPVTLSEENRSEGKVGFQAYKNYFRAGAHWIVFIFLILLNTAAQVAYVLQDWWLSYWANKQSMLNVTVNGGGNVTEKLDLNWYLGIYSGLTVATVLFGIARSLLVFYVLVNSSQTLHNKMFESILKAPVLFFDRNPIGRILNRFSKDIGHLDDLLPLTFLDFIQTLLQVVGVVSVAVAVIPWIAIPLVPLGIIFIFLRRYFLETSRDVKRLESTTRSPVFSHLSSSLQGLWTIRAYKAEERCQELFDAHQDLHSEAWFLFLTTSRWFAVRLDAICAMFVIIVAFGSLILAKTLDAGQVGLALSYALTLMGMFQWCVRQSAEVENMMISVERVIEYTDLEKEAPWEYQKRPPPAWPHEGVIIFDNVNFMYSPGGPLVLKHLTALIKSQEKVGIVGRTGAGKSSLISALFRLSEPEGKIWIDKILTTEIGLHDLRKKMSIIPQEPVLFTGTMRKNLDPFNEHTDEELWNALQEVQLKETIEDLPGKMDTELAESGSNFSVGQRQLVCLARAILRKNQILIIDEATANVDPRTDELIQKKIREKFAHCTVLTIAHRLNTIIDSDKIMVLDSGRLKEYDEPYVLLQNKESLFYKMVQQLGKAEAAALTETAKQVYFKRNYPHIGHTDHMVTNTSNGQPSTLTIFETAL
UniProt P28288: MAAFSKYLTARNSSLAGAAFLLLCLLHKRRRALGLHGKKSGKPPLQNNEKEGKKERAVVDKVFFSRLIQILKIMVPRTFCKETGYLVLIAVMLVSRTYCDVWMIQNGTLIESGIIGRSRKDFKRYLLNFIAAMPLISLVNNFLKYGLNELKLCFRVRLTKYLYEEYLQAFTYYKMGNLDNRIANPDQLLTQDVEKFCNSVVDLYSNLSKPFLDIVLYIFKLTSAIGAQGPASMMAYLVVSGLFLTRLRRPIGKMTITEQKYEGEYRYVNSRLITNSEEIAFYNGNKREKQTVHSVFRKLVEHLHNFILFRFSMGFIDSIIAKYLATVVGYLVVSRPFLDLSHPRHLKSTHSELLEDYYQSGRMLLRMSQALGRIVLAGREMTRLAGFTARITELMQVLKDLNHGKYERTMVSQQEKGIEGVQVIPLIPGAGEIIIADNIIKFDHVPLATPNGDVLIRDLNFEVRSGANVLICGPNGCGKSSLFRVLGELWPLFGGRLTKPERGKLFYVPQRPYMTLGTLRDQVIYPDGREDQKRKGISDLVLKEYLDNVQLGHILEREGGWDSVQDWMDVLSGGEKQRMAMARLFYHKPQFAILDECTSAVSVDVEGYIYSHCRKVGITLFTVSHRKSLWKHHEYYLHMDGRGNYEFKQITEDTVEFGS
UniProt Q8NE71: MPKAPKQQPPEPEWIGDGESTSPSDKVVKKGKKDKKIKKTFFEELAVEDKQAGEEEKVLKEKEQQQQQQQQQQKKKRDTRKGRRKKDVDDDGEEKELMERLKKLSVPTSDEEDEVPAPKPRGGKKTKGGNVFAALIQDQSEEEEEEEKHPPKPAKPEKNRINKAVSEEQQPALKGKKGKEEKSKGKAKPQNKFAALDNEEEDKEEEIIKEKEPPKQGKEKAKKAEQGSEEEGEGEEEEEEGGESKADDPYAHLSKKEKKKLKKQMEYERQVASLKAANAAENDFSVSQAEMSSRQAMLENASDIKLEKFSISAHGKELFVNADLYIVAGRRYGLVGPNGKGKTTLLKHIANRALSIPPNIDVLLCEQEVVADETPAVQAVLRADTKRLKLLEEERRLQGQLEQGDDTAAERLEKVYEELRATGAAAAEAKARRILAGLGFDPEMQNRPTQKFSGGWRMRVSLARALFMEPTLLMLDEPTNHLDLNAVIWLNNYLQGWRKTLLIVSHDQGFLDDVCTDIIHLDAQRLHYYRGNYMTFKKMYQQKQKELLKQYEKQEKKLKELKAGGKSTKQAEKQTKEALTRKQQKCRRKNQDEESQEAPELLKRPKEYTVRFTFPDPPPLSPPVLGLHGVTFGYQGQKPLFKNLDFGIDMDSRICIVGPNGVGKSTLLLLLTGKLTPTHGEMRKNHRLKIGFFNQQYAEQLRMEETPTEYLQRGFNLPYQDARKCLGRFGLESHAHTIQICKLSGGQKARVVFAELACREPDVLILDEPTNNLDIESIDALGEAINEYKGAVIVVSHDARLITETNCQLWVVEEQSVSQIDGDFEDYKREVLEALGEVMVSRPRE

Each target was assayed with C[C@H](C1=CC=C(C=C1)C(=O)NC2=C3C=CNC3=NC=C2)N (assay: log2 fold change, soluble protein after heating vs DMSO (PISA); higher = thermal stabilisation; K562 cells, 10 uM, 30 min; active = over 0.2 and 3.5 SD of the protein, either way, in both replicates (recomputed)).
Summary of the method: (§1)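 Aliquots of K562 cells (2×10^6 cells/mL) treated with 10 μM compound for 30 min were heated for 3 min over 48°C-58°C. After pooling and extraction in PBS with 0.5% NP-40 at 4°C, soluble protein from a 21,000xg, 90 min spin was quantified by TMTpro 16plex LC-MS/MS with channel sums equalised. Thermal stability is expressed against control samples, from duplicates, as a log2 fold change.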

log2 fold change, inactive:
ACACA isoform 4 (UniProt Q13085) 0.356
ACSS2 isoform 2 (UniProt Q9NR19) -0.021
ACOX1 isoform 2 (UniProt Q15067) -0.121
ACAT1 (UniProt P24752) -0.035
ACTR2 (UniProt P61160) -0.064
ACADS (UniProt P16219) 0.031
ADAM10 (UniProt O14672) -0.052
ABHD12 isoform 2 (UniProt Q8N2K0) 0.076
ADAR isoform 4 (UniProt P55265) 0.274
ACTR10 (UniProt Q9NZ32) 0.027
ABLIM1 (UniProt O14639) -0.204
ABCF3 (UniProt Q9NUQ8) 0.43
ABRAXAS2 (UniProt Q15018) -0.033
ACTA1 (UniProt P68133) -0.016
ADAM17 (UniProt P78536) 0.058
A2M (UniProt P01023) 0.188
ACADSB (UniProt P45954) -0.099
ACOT8 (UniProt O14734) -0.024
ABCC4 (UniProt O15439) -0.072
ACAD8 (UniProt Q9UKU7) 0.022
ACY1 (UniProt Q03154) -0.02
AASDHPPT (UniProt Q9NRN7) -0.038
ACTL6A (UniProt O96019) -0.027
ABCB7 isoform 2 (UniProt O75027) -0.101
ADAL (UniProt Q6DHV7) -0.036
ACTR6 (UniProt Q9GZN1) 0.061
ACO1 (UniProt P21399) -0.116
ACTR3 (UniProt P61158) -0.058
ABCD3 (UniProt P28288) -0.014
ACAA1 (UniProt P09110) -0.013
ABCE1 (UniProt P61221) -0.038
ADAT2 (UniProt Q7Z6V5) 0.014
ABCF1 (UniProt Q8NE71) 0.128
ACTN4 (UniProt O43707) -0.027
AARS (UniProt P49588) -0.043
ACTL8 (UniProt Q9H568) -0.003

What follows are targets tested with C[C@H](Nc1ncnc2nc[nH]c12)c1cc2cccc(Cl)c2c(=O)n1-c1ccccc1 [duvelisib] in the same assay as above.
Summary of the method: as §1

log2 fold change, inactive:
ACACA isoform 4 (UniProt Q13085) -0.113
ACSS2 isoform 2 (UniProt Q9NR19) 0.001
ACOX1 isoform 2 (UniProt Q15067) 0.014
ACAT1 (UniProt P24752) 0.011
ACTR2 (UniProt P61160) 0.012
ACADS (UniProt P16219) 0.057
ADAM10 (UniProt O14672) 0.017
ABHD12 isoform 2 (UniProt Q8N2K0) -0.01
ADAR isoform 4 (UniProt P55265) -0.017
ACTR10 (UniProt Q9NZ32) 0.089
ABLIM1 (UniProt O14639) 0.159
ABCF3 (UniProt Q9NUQ8) -0.064
ABRAXAS2 (UniProt Q15018) 0
ACTA1 (UniProt P68133) 0.002
ADAM17 (UniProt P78536) 0.034
A2M (UniProt P01023) -0.228
ACADSB (UniProt P45954) 0.084
ACOT8 (UniProt O14734) -0.015
ABCC4 (UniProt O15439) 0.063
ACAD8 (UniProt Q9UKU7) 0.037
ACY1 (UniProt Q03154) 0.018
AASDHPPT (UniProt Q9NRN7) 0.057
ACTL6A (UniProt O96019) 0.019
ABCB7 isoform 2 (UniProt O75027) 0.06
ADAL (UniProt Q6DHV7) 0.007
ACTR6 (UniProt Q9GZN1) 0.045
ACO1 (UniProt P21399) 0
ACTR3 (UniProt P61158) -0.018
ABCD3 (UniProt P28288) 0.091
ACAA1 (UniProt P09110) 0.023
ABCE1 (UniProt P61221) 0.007
ADAT2 (UniProt Q7Z6V5) 0.055
ABCF1 (UniProt Q8NE71) -0.042
ACTN4 (UniProt O43707) 0.025
AARS (UniProt P49588) 0.053
ACTL8 (UniProt Q9H568) -0.013
